PubChem BioAssay AID686943 | Drosophila RNAi Screening Center – 2013
Aim: 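Knockdowns that increase or decrease active ERK after insulin receptor stimulation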 (primary screen). Cells: Drosophila S2R+ haemocyte-like cells expressing YFP-tagged ERK (Rolled). Reagents: long dsRNA against Drosophila genes. Challenge: insulin stimulation versus unstimulated cells; dose and duration not given. Measured: 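Per-plate z-scores of phospho-ERK immunostaining normalised to YFP-tagged ERK, measured with and without insulin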. Reading the numbers: replicate 1, z-score of dpERK with insulin: higher = more active ERK per ERK-YFP after insulin.
The screen tested about 23,000 reagents; below is an unselected part of those with a known target gene and a result. 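Extra replicates exist only for a retested subset of genes; insulin dose and duration not given; both raised and lowered dpERK matter.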 Reagents against one gene are numbered here. Further read-outs or replicates are left out here. Not given: the amount of reagent, the time to read-out.

gene knocked down	reagent	replicate 1, z-score of dpERK with insulin
CG15252	1	-1.11
CG17658	1	-0.67
thw	1	0.66
Cyp6a20	1	0.31
CG31313	1	-0.61
CG5757	1	0.11
Uch-L5R	1	-1.03
CG6171	1	-0.41
prt	1	1.15
CG10077	1	-0.4
CR33283	1	-0.09
Ehbp1	1	-0.53
unk	1	-0.25
CG11672	1	1.01
bab1	1	-3.49
bab1	2	-0.89
bab1	3	0.25
CG14671	1	0.08
sktl	1	-1.15
tim	1	0.04
Osi22	1	-0.14
loopin-1	1	-0.24
ATPsynepsilonL	1	-1.69
Fit1	1	0.08
RpS7	1	1.69
CG17321	1	0.47
CG5377	1	-0.53
yellow-f2	1	0.93
CG31855	1	-1.85
CG5592	1	0.44
pasi1	1	1.04
pasi1	2	0.1
bsf	1	-0.67
Ntl	1	0.06
RNASEK	1	-1.79
CG7953	1	0.15
BCL7-like	1	0.45
ewg	1	2.03
CG30324	1	0.07
Ktch	1	7.19
CG31294	1	-1.04
B9d1	1	0.9
CG14244	1	-0.25
Srg2	1	0.16
Pde1c	1	-1.21
Pde1c	2	0.4
Pde1c	3	-0.93
Pde1c	4	-0.24
Pde1c	5	0.58
Pde1c	6	-0.82
CG30197	1	-1.08
asRNA:CR30267	1	-0.02
Cyp303a1	1	0.06
CG4661	1	0.61
Mlf	1	4.25
CG7694	1	0.12
CG34451	1	-1.6
CG34451	2	0.76
GlcT	1	0.6
CG30486	1	0.23
CG6901	1	-0.09
EMC4	1	-0.13
CG6431	1	0.93
CG10298	1	0.5
meng	1	0.1
ksh	1	1.6
CG32718	1	0.15
CG32483	1	-0.06
Eip74EF	1	-5.46
Eip74EF	2	0.77
CG13325	1	-1.5
CAH13	1	0.59
Nulp1	1	0.09
